Data reported in paper PMC11897865.
These are yes or no findings as the source states them, for the method shown. In cells and extracts the contact can be indirect. Some results given as binding are weak or reduced against the parent protein; the word gives no strength.

Chains of the proteins cited; added tags and fusions are not shown. Lines headed by an entry give the natural chain unless they say otherwise; changes in a name come on top. Residues count along the entry.
UniProt P31424, residues 21-1203: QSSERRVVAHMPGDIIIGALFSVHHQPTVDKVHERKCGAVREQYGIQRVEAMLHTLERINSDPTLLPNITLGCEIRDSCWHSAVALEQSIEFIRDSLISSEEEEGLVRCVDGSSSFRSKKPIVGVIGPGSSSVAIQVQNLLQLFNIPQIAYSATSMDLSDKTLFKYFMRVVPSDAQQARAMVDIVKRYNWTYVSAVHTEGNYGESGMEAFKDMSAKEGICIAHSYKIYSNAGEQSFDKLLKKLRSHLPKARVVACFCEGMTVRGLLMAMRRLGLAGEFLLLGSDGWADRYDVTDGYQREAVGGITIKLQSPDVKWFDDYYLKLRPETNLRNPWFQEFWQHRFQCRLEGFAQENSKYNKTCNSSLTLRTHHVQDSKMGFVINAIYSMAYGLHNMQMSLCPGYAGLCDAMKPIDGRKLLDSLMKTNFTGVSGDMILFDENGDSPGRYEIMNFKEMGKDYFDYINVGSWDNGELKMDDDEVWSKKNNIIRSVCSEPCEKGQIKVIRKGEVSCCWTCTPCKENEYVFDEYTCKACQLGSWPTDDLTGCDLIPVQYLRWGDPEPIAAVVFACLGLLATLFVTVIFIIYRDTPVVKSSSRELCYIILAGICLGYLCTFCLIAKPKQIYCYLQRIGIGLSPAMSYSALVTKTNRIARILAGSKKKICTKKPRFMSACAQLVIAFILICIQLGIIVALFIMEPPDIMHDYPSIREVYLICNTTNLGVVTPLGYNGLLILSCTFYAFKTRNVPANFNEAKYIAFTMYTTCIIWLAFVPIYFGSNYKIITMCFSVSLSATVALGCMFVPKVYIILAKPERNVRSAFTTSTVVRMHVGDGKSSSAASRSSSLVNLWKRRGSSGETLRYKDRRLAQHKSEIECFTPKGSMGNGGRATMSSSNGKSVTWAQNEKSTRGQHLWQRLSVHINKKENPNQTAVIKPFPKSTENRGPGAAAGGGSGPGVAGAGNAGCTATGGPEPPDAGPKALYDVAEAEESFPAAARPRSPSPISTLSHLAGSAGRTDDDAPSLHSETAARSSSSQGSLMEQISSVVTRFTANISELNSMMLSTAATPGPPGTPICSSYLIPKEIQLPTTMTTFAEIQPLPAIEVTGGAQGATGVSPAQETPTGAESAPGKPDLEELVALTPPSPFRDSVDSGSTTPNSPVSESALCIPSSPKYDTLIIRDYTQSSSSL
UniProt P30543: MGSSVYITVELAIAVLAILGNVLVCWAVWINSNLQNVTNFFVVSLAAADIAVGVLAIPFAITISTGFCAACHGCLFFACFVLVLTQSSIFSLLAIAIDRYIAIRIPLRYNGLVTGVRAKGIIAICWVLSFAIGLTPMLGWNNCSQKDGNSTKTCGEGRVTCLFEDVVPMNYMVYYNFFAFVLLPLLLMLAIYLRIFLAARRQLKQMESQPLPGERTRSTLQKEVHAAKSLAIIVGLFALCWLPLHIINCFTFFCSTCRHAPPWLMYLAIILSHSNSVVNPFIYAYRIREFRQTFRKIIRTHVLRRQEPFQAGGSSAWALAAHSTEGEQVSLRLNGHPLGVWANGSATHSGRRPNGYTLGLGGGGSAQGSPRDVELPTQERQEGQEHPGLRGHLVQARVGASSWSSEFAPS

Columns and labels:
[1] = molecular target: mGluR5 (rat (endogenous in primary rat microglia)) (UniProt P31424); test: co-IP; anti-A2aR or anti-mGluR5 antibody (or IgG) on Protein A/G magnetic beads, lysate of primary rat microglia treated with chronic hypoxia, overnight at 4°C; Western blot
[2] = molecular target: A2aR-LgBit (UniProt P30543); test: split reporter; HEK293ET cells cotransfected with mGluR5-SmBit and A2aR-LgBit plasmids, 48 h, Nano-Glo Live Cell Reagent, luminescence; saturation with rising plasmid concentrations; rising glutamate concentrations raised the signal
[3] = molecular target: Adenosine A2A receptor (rat (endogenous in primary rat microglia)) (UniProt P30543); test: co-IP; anti-A2aR or anti-mGluR5 antibody (or IgG) on Protein A/G magnetic beads, lysate of primary rat microglia treated with chronic hypoxia, overnight at 4°C; Western blot
[4] = molecular target: Adenosine A2A receptor (rat (endogenous in primary rat microglia)) (UniProt P30543); test: proximity ligation; in situ PLA (Duolink) on fixed primary rat microglia; blank, 20 or 40 uM glutamate, hypoxia, hypoxia with 20 or 40 uM glutamate; confocal microscopy

Adenosine A2A receptor (from UniProt P30543 1-410)
binding [1]: binds

mGluR5-SmBit (from UniProt P31424 21-1203) (receptor)
binding [2]: binds

mGluR5 (from UniProt P31424 21-1203) (receptor)
binding [3]: binds | binding [4]: binds
